Data from PubChem BioAssay AID330 (DTP/NCI, 2004).
The list is a part of this screen's results and no random one: it gathers tests that were run many times, whatever their T/C, doses with no T/C, and many T/C values between a quarter and a half above the control. Further doses and runs are listed elsewhere. T/C gives the treated animals as a percentage of the vehicle group. Some entries give survivors of the animals treated and no T/C: the source files T/C as zero there, which appears to mark a toxic dose or a test without result, not a measured value. Some doses without a T/C left all or most animals alive at the check, yet need not have been tolerated: survival well below the control is almost never listed, so the zero probably covers shortened survival too. Counts of survivors are from the toxicity check (mostly the fifth day) where no day follows; animals may have died later. Schedule codes are those of the source, read here as Q, the interval in days (D) or hours (H), X, the number of doses. Some entries were tested several times; their values stand side by side, smallest first. Brackets with × say how often a value occurs here. Where survival is the endpoint, the PubChem record calls one and a half times the control and up active, and a quarter to a half above the control has no call in these data; cut-offs in other NCI protocols can differ. Some T/C values carry the count of animals alive at the toxicity check (mostly the fifth day); where none is given, no animal had died by that day.

System: P388 leukemia ip, CD2F1 mice, survival T/C
Experiment: NCI In Vivo Anticancer Drug Screen. Data for tumor model P388 Leukemia (intraperitoneal) in CD2F1 (CDF1) mice
Conditions: T/C endpoint: median survival time, higher T/C = longer survival
[1] = dose: 0.5 mg/kg/injection, schedule: Q01DX009 (ip), vehicle: water
[2] = dose: 1.0 mg/kg/injection, schedule: Q01DX009 (ip), vehicle: water

With CC[C@]1(O)C[C@H]2CN(CCc3c([nH]c4ccccc34)[C@@](C(=O)OC)(c3cc4c(cc3OC)N(C=O)[C@H]3[C@@](O)(C(=O)OC)[C@H](OC(C)=O)[C@]5(CC)C=CCN6CC[C@]43[C@@H]65)C2)C1 the T/C (dose: 0.5 mg/kg/injection, schedule: Q01DX009 (ip), vehicle: saline, evaluated on day 5) was 74 % of control, the T/C (dose: 0.5 mg/kg/injection, schedule: Q01DX009 (ip), vehicle: saline, evaluated on day 10) was 116 % of control [6 of 8 alive] and the T/C (dose: 0.5 mg/kg/injection, schedule: Q01DX009 (ip), vehicle: saline, evaluated on day 30) was 100 % of control. For the same compound, the survivor count (dose: 0.5 mg/kg/injection, schedule: Q01DX009 (ip), vehicle: saline) was 10 of 10 and 6 of 6, the T/C [1] was 105, 127, 189, 201 % of control and the survivor count [1] was 5 of 6 and 6 of 6 (2×). For the same compound, the T/C (dose: 0.5 mg/kg/injection, schedule: Q04DX003 (ip), vehicle: saline, evaluated on day 5) was 172, 180, 215 % of control, the T/C (dose: 0.5 mg/kg/injection, schedule: Q04DX003 (ip), vehicle: saline, evaluated on day 9) was 122, 127, 133 (2×), 155 % of control and the T/C (dose: 0.5 mg/kg/injection, schedule: Q04DX003 (ip), vehicle: saline, evaluated on day 30) was 105 and 184 % of control. The T/C (dose: 0.5 mg/kg/injection, schedule: Q04DX003 (ip), vehicle: saline, evaluated on day 35) was 183 % of control, the T/C (dose: 0.5 mg/kg/injection, schedule: Q04DX003 (ip), vehicle: saline, evaluated on day 45) was 177, 180, 200 % of control and the T/C (dose: 0.5 mg/kg/injection, schedule: Q04DX003 (ip), vehicle: saline, evaluated on day 60) was 173, 181, 189 % of control. The T/C (dose: 0.5 mg/kg/injection, schedule: Q04DX003 (iv), vehicle: saline) was 126 % of control, the T/C (dose: 0.53 mg/kg/injection, schedule: Q04DX003 (iv), vehicle: saline) was 133 and 134 % of control and the T/C (dose: 0.67 mg/kg/injection, schedule: Q04DX003 (ip), vehicle: saline, evaluated on day 5) was 160 and 174 % of control. The T/C (dose: 0.67 mg/kg/injection, schedule: Q04DX003 (ip), vehicle: saline, evaluated on day 9) was 150 and 153 % of control, the T/C (dose: 0.67 mg/kg/injection, schedule: Q04DX003 (ip), vehicle: saline, evaluated on day 60) was 178, 179, 193, 206 % of control [9 of 10 alive] and the T/C (dose: 0.72 mg/kg/injection, schedule: Q04DX003 (ip), vehicle: saline) was 171, 173, 182, 184 % of control. The T/C (dose: 0.75 mg/kg/injection, schedule: Q04DX002 (ip), vehicle: saline) was 144 % of control, the survivor count (dose: 0.8 mg/kg/injection, schedule: Q01DX009 (ip), vehicle: saline) was 3 of 6 and 5 of 6 and the T/C (dose: 0.8 mg/kg/injection, schedule: Q04DX003 (ip), vehicle: water) was 135 % of control. For the same compound, the T/C (dose: 0.86 mg/kg/injection, schedule: Q04DX003 (ip), vehicle: saline) was 132, 150, 153, 155, 162, 175, 182, 220 % of control, the T/C (dose: 1.0 mg/kg/injection, schedule: Q01DX001 (ip), vehicle: Klucel (hydroxypropylcellulose) (HPC)) was 126 and 139 % of control and the T/C (dose: 1.0 mg/kg/injection, schedule: Q01DX001 (ip), vehicle: saline with Tween-80) was 132 % of control. For the same compound, the T/C (dose: 1.0 mg/kg/injection, schedule: Q01DX001 (ip), vehicle: saline, evaluated on day 5) was 114, 130, 145, 148, 150, 157, 159, 164 % of control, the T/C (dose: 1.0 mg/kg/injection, schedule: Q01DX001 (ip), vehicle: saline, evaluated on day 30) was 132, 153 (2×), 160, 165, 180 (2×), 187, 187 [5 of 6 alive], 193, 194, 201 % of control and the survivor count (dose: 1.0 mg/kg/injection, schedule: Q01DX001 (ip), vehicle: saline) was 5 of 6. For the same compound, the T/C (dose: 1.0 mg/kg/injection, schedule: Q01DX001 (ip), vehicle: water, evaluated on day 3) was 155 % of control, the T/C (dose: 1.0 mg/kg/injection, schedule: Q01DX001 (ip), vehicle: water, evaluated on day 5) was 136, 149, 150, 152, 157, 160, 172 % of control and the T/C (dose: 1.0 mg/kg/injection, schedule: Q01DX001 (ip), vehicle: water, evaluated on day 6) was 138, 144, 147 % of control. The T/C (dose: 1.0 mg/kg/injection, schedule: Q01DX001 (ip), vehicle: water, evaluated on day 10) was 104 % of control, the T/C (dose: 1.0 mg/kg/injection, schedule: Q01DX001 (ip), vehicle: water, evaluated on day 20) was 150 % of control and the T/C (dose: 1.0 mg/kg/injection, schedule: Q01DX001 (ip), vehicle: water, evaluated on day 30) was 131, 138, 139, 140, 143, 144, 145 (3×), 148 [5 of 6 alive], 149 (2×), 150 (2×), 151, 152 (4×), 153 (2×), 154, 155 (2×), 158, 159, 160, 161 [4 of 6 alive], 164, 165 (2×), 172, 177, 177 % of control [4 of 6 alive]. The T/C (dose: 1.0 mg/kg/injection, schedule: Q01DX001 (ip), vehicle: water, evaluated on day 35) was 157 % of control, the survivor count (dose: 1.0 mg/kg/injection, schedule: Q01DX001 (ip), vehicle: water) was 3 of 6 (2×) and the T/C (dose: 1.0 mg/kg/injection, schedule: Q01DX001 (iv), vehicle: saline) was 140 % of control. The survivor count (dose: 1.0 mg/kg/injection, schedule: Q01DX005 (ip), vehicle: saline) was 6 of 6, the T/C (dose: 1.0 mg/kg/injection, schedule: Q01DX009 (ip), vehicle: saline, evaluated on day 5) was 77 % of control and the T/C (dose: 1.0 mg/kg/injection, schedule: Q01DX009 (ip), vehicle: saline, evaluated on day 30) was 98 % of control [3 of 6 alive]. The survivor count (dose: 1.0 mg/kg/injection, schedule: Q01DX009 (ip), vehicle: saline) was 4 of 6 and 10 of 10, the T/C [2] was 91 % of control and the survivor count [2] was 2 of 6, 4 of 6, 5 of 6, 6 of 6. For the same compound, the T/C (dose: 1.0 mg/kg/injection, schedule: Q04DX003 (ip), vehicle: saline, evaluated on day 5) was 174, 175, 201, 206, 207, 208, 218, 274 % of control, the T/C (dose: 1.0 mg/kg/injection, schedule: Q04DX003 (ip), vehicle: saline, evaluated on day 9) was 119, 141, 151, 158, 164, 169, 169 % of control [6 of 7 alive] and the T/C (dose: 1.0 mg/kg/injection, schedule: Q04DX003 (ip), vehicle: saline, evaluated on day 20) was 182 % of control. The T/C (dose: 1.0 mg/kg/injection, schedule: Q04DX003 (ip), vehicle: saline, evaluated on day 23) was 196 % of control, the T/C (dose: 1.0 mg/kg/injection, schedule: Q04DX003 (ip), vehicle: saline, evaluated on day 30, list 1 of 2) was 153, 167, 172 (2×), 175, 178, 179, 181, 186, 188, 189, 190, 192, 198, 199, 200, 201, 203, 205, 208 (2×), 209, 213, 214, 215, 217, 218, 221, 226, 234, 245, 252 % of control and the T/C (dose: 1.0 mg/kg/injection, schedule: Q04DX003 (ip), vehicle: saline, evaluated on day 30, list 2 of 2) was 95, 125, 163, 169, 172, 173, 178, 179 [5 of 6 alive], 180, 185, 187, 189, 190, 192, 193, 198, 199, 201, 203, 205, 207, 208, 209, 213, 214, 215, 216, 218, 220, 223, 227, 239, 247 % of control. The T/C (dose: 1.0 mg/kg/injection, schedule: Q04DX003 (ip), vehicle: saline, evaluated on day 35) was 226 % of control.
